US20180015038A1, “OMEGA-3 FATTY ACID SELF-EMULSIFYING COMPOSITION” (MOCHIDA PHARMACEUTICAL CO., LTD., priority 2015, published 2018)

Assay: Dissolution of the statin in the self-emulsifying composition on preparation
Type: physicochemical
Conditions: statin added to self-emulsifying composition, 50° C., stirring, ultrasonication
Protocol: • (1) 2.12 g of water, 18 g of polyoxyethylene (20) sorbitan oleate ester, 18 g of Polyoxyl 35 castor oil, 11 g of soybean lecithin, and 204.6 g of EPA-E were weighed, sealed in a container, heated to about 70° C. with mixing to prepare a self-emulsifying composition. • (2) 6.3 g of the self-emulsifying composition of (1) was weighed, and after adding 10 mg of pitavastatin calcium in the case of Example 1 or 40 mg of pitavastatin calcium in the case of Example 2, the mixture was heated to 50° C., stirred, and subjected to ultrasonication to prepare each pharmaceutical composition. The resulting pharmaceutical composition was purged with nitrogen, sealed in a container, and stored at room temperature until the evaluation was conducted.

CC(C)c1c(C(=O)Nc2ccccc2)c(-c2ccccc2)c(-c2ccc(F)cc2)n1CC[C@@H](O)C[C@@H](O)CC(=O)[O-].CC(C)c1c(C(=O)Nc2ccccc2)c(-c2ccccc2)c(-c2ccc(F)cc2)n1CC[C@@H](O)C[C@@H](O)CC(=O)[O-].[Ca+2] [atorvastatin calcium]
dissolution of the statin in the pharmaceutical composition: did not dissolve
